Library screen at single concentrations

The values are deposited in ChEMBL (CHEMBL3988442, “University of Dundee, Small-Polar-MMV Screening Library” (2021)).

Values are the deposited “Percent Effect”, in %.
The record does not define 0% and 100%; most values in the screen are far below 50% and negative numbers occur (in some assays of this library far below -100).
The compounds are a random part of those screened.
Two or more numbers in one place are separate tests of the same structure; such repeats can differ widely.

Mtb glucose medium: 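Whole-cell growth test on Mycobacterium tuberculosis, read after 3 days in glucose-containing 7H9 medium; the read-out is not stated. Compounds at 50 µM. The record gives no direction; compounds that gave an IC50 in retests scored well above the rest, so higher reads as more growth inhibition. About 69,000 compounds were tested under these conditions; 1.1% (about 760) showed 50% or more at least once.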
Mtb cholesterol medium: 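Growth of Mycobacterium tuberculosis over 4 days (cholesterol / DPPC medium with tyloxapol); the read-out is not stated. Concentration: 50 µM. Direction is inferred from retests: higher values go with more growth inhibition. Size under these conditions: about 69,000 compounds, about 370 of them at 50% or above in at least one test.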

compound	Mtb glucose medium	Mtb cholesterol medium
Cc1cccc(S(=O)(=O)NC2CCN(CC(F)(F)F)C2)c1 (centres unmarked)	-7.382% & 4.151%	3.747%
Cc1ccc(CN2CCc3ncnc(-c4ccoc4)c3CC2)o1.O=C(O)C(F)(F)F	-46.54%	-1.088%
O=C(O)C(F)(F)F.O=C(c1ccco1)N1CCOC2(COCCN(c3ncccn3)C2)C1 (centres unmarked)	-10.23%	6.546% & -19.43%
CC(C)N1CCC2(C=C(C(=O)NC3CC3)c3ccccc32)CC1.O=C(O)C(F)(F)F	-4.472%	-5.039%
O=C(O)C(F)(F)F.[H][C@@]12OCCN(Cc3ccoc3)[C@@]1([H])CC[C@H]2OCC1CCOCC1	26.46%	-1.858%
COCC1CN(CC2CC2)Cc2ncn(CC3CC3)c21 (centres unmarked)	-2.423%	-0.4016%
CCOC(=O)C1CN(CC2CC2)Cc2ncn(CC)c21.O=C(O)C(F)(F)F (centres unmarked)	0.07757% & -6.788%	-5.134%
NC(=O)C(NCc1ccc(Cl)s1)c1ccccc1 (centres unmarked)	18.64% & -20.77%	-29.79%
COc1ccc(-c2nc(CCNC(=O)NC3CCC(O)CC3)co2)cc1 (centres unmarked)	-25.68%	-17.48%
CCc1nc(C)c(C(=O)N(C)Cc2cnn(-c3cccc(OC)c3)c2)s1	-9.926%	-13%
CNC(=O)c1cccc(CC2COCCN(Cc3ccc(C)o3)C2)n1 (centres unmarked)	-15.14%	-6.375%
CCn1cc(Br)c(C(=O)NCc2ccc(F)cc2)n1	37.08%	5.482%
CC(=O)N1CCCC2(CCC(=O)N2Cc2cccnc2)C1.O=C(O)C(F)(F)F (centres unmarked)	-6.724%	9.123%
Cc1cccc(C)c1OCCCN1CCC(n2cncn2)CC1	2.368%	2.081%
[H][C@@]12CCCO[C@]1([H])[C@H](N(C)C)CN(c1nnc(C)s1)C2	-3.762% & -39.95%	-25.01%
CC(C)NC(=O)[C@@H]1C[C@H](N)CN1C(=O)C1(c2ccc(Cl)cc2)CCC1	15.96% & 2.931%	3.761%
Cn1c2c(c(=O)c3ccccc31)CCC(C)(C)O2	-0.2376% & 14.07%	1.573%
CN(C)c1cc(C(=O)N2CCCC2c2cnn(C)c2)ccn1 (centres unmarked)	-26.06%	-10.38%
O=C(O)C(F)(F)F.O=C(O)C(F)(F)F.O=C(O)C(F)(F)F.c1cncc(OCc2n[nH]c3c2CN(Cc2cccs2)C3)c1	-8.308%	0.8905%
Cc1noc(C)c1NS(=O)(=O)c1cc(Cl)c(Cl)c(C(=O)O)c1	8.964%	1.13%
CCC(CO)N(Cc1cccs1)C(=O)Cc1ccncc1 (centres unmarked)	24.6%	-7.34%
Cc1ccccc1N1CCN(CCS(=O)(=O)c2ccc(Br)cc2)CC1	18.42%	-3.598%
O=C(NCCCNc1ccc(C(F)(F)F)cn1)c1ccc(F)cc1	21.74%	24.28%
Cc1ccc(C2(CN3CCN(c4ncccn4)CC3)CCNCC2)nc1	-22.56%	1.569%
CCCN1CCCC2(CCN(C(=O)CCCn3cncn3)C2)C1=O (centres unmarked)	-13.3%	2.823%
O=C(c1cccc(C2CCNC2)c1)N1CCC(c2ccncc2)CC1 (centres unmarked)	-22.9%	10.42%
CO[C@@H]1CCN(Cc2ccoc2)[C@H]1Cc1ccccc1.O=C(O)C(F)(F)F	27.48%	35.16%
CNC(=O)C1(C)CN(c2nnc(C)c3ccccc23)CCO1 (centres unmarked)	4.647%	-6.957%
NC(=O)c1cccc(OCC(=O)NS(=O)(=O)c2ccc3c(c2)CCC3)c1	-27.18%	8.721%
Cc1cnc(N2CCCOC(CN3CCCCC3)C2)nc1 (centres unmarked)	23.68%	15.86%
Cc1noc2ncc(C(=O)N3CCCC(n4ccnc4C)C3)cc12 (centres unmarked)	8.794%	18.19%
O=C1CCN(C(=O)C2(c3ccc(Br)cc3)CC2)CCN1	28.57%	0.684%
CCC(=O)N1CCCCC1c1nc(N(C)C)ncc1-c1cc(C)no1 (centres unmarked)	-1.981%	-1.667% & -7.676%
Cc1ncncc1C(=O)NCCn1nc2ccccn2c1=O	-10.4%	-9.134%
COCCN(CC(F)F)c1cc(COC)nc2ncnn12	-0.4068% & -3.343%	-3.925%
CC(C)Nc1nc2c(s1)C(=O)CN(C)C2	-16.61%	-21.08%
c1ccc2c(Cc3nnc([C@H]4CCN(CC5CC5)C4)o3)c[nH]c2c1	-1.531% & 0.5656%	-4.63%
COCCCN1CCc2cncnc2C1	-14.16%	2.954%
CCn1ccnc1CN1C[C@@H](CN2CCCC2)[C@@H](CO)C1	2.459%	-0.3999%
CN(c1ccccc1C(=O)O)S(=O)(=O)c1cccc2cccnc12	-8.711%	-3.177%
CCOCc1nnc(NCc2ccsc2)o1	60.68%	36.64%
CCc1nnc(CNCC2CCN(CC(O)c3ccccc3)CC2)o1 (centres unmarked)	-40.69%	-18.41%
Cc1ccccc1C1(CN)CCCCC1	2.607%	1.722%

Once more, the final 5:

| compound | Mtb glucose medium | Mtb cholesterol medium |
|---|---|---|
| `CCn1ccnc1CN1C[C@@H](CN2CCCC2)[C@@H](CO)C1` | 2.459% | -0.3999% |
| `CN(c1ccccc1C(=O)O)S(=O)(=O)c1cccc2cccnc12` | -8.711% | -3.177% |
| `CCOCc1nnc(NCc2ccsc2)o1` | 60.68% | 36.64% |
| `CCc1nnc(CNCC2CCN(CC(O)c3ccccc3)CC2)o1` (centres unmarked) | -40.69% | -18.41% |
| `Cc1ccccc1C1(CN)CCCCC1` | 2.607% | 1.722% |